# This is one part of the list. Shown are side measurements of this screen, not its main read-out; they come without a call. Compounds called inactive in the main read-out are mostly missing here. Potencies come from curve fits of mixed quality, noted in brackets.
# Assay: qHTS Assay for Modulators of Lamin A Splicing
# Conditions: HeLa LMNA splicing GFP/RFP minigene ratio, 48 h
# Method in brief: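 S3 HeLa stable clones carrying a lamin A-EGFP splicing minigene plus DsRed2 were seeded at 600 cells/well in Opti-MEM with 2% FBS, pin-dosed and incubated 48 h at 37°C. Acumen cytometry (488 nm) gave the GFP/RFP total-intensity ratio.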
# [1] = measured here: GFP splicing reporter channel
# [2] = measured here: RFP viability control channel
smiles,measurement,setting,value
Cc1ccc(CNC(=O)c2cc3c(=O)n(Cc4ccco4)ccc3nc2C)cc1,AC50,[1],"1 µM [rising, full curve]"
same,AC50,[2],"0.631 µM [rising, full curve]"
COc1cc(NC(=O)CSc2nc3ncccc3o2)cc(OC)c1,AC50,[1],"0.126 µM [falling, full curve, poor fit]"
same,AC50,[2],"0.1 µM [falling, full curve]"
Cc1ccc(N=c2c([N+](=O)[O-])nn(-c3ccccc3)n2O)c(C)c1,AC50,[1],"35.5 µM [rising, single point]"
same,AC50,[2],"35.5 µM [rising, single point]"
CCOC(=O)/C(=C/c1ccc(Cl)cc1)NC(=O)c1ccco1,AC50,[1],"3.16 µM [rising, partial curve]"
Nc1nc(-c2ccccc2)cc(N2CCCCC2)n1,AC50,[2],"3.98 µM [rising, full curve, poor fit]"
C(=C\c1ccccc1)/CSc1nnc(-c2ccccn2)n1Cc1ccco1,AC50,[2],"3.55 µM [rising, single point]"
COc1ccc(-c2noc(CSc3nc(N)c(-c4ccccc4)c(=O)[nH]3)n2)cc1,AC50,[2],"35.5 µM [rising, single point]"
O=C(NNc1cccc(Cl)n1)Nc1ccc(F)cc1,AC50,[2],"5.62 µM [rising, partial curve]"
O=[N+]([O-])c1cc(S(=O)(=O)Nc2ccccc2)ccc1N1CCN(c2ccc(O)cc2)CC1,AC50,[2],"20 µM [rising, single point]"
CC(c1ccccn1)N(CCN(C)C)C(=S)Nc1cccc(F)c1 (stereo not drawn),AC50,[1],"20 µM [rising, single point]"
same,AC50,[2],"25.1 µM [rising, single point]"
COc1cc(OC)c(NC(=O)c2ccc3c(SCC(=O)O)c4c(nc3c2)CCCC4)cc1Cl,AC50,[2],"0.00316 µM [rising, full curve, poor fit]"
CCN(c1ccccc1)S(=O)(=O)c1ccc(OC)c(NC(=O)CNC)c1,AC50,[1],"0.282 µM [falling, full curve]"
same,AC50,[2],"0.2 µM [falling, full curve, poor fit]"
Cc1ccc(OCCn2cnc(Cl)c2Cl)cc1,AC50,[1],"8.91 µM [rising, partial curve]"
CC(=O)Nc1ccc(OCC(O)CNC2CCCC2)cc1 (stereo not drawn),AC50,[2],"31.6 µM [falling, partial curve]"
COCCn1c(=S)[nH]c2cc(C(=O)N3CCN(Cc4ccc5c(c4)OCO5)CC3)ccc2c1=O,AC50,[1],"2.82 µM [rising, full curve]"
O=C(Nc1nn(Cc2ccc(Cl)cc2)cc1Br)c1ccc(COc2ccccc2Cl)o1,AC50,[2],"14.1 µM [rising, single point]"
CCOC(=O)Cc1c(Sc2ccccc2)c2cc(C)ccc2n1C,AC50,[2],"35.5 µM [rising, partial curve, poor fit]"
Cc1ccc(CNC(=O)CS(=O)(=O)c2cccc3nsnc23)cc1,AC50,[1],"0.0891 µM [rising, full curve, poor fit]"
Cc1ccc2cc(C#N)c(N3CCCN(S(=O)(=O)c4ccc(F)cc4)CC3)nc2c1,AC50,[2],"17.8 µM [rising, partial curve, poor fit]"
Cc1ccc(CN2CCN(/N=C\C=C\c3ccccc3)CC2)cc1,AC50,[1],"0.891 µM [falling, full curve, poor fit]"
Cc1cccc(NS(=O)(=O)c2ccc3c(c2)CC(C)N3C(=O)C2CCC2)c1C (stereo not drawn),AC50,[2],"0.02 µM [rising, full curve, poor fit]"
CCc1nc2ccc(C(=O)NCc3cc(OC)ccc3OC)cc2nc1CC,AC50,[1],"0.02 µM [rising, full curve, poor fit]"
COc1ccc(-c2ccnc(SCC(=O)c3ccc(OC)c(OC)c3)n2)cc1,AC50,[2],"6.31 µM [rising, partial curve]"
O=C(Nc1ccccc1Cc1ccccc1)c1ccccc1NS(=O)(=O)c1ccc(Cl)s1,AC50,[1],"14.1 µM [rising, partial curve]"
same,AC50,[2],"7.08 µM [rising, full curve]"
COc1cc(OC)c(C2N(C)c3ccccc3N2C)cc1OC,AC50,[1],"11.2 µM [rising, single point]"
same,AC50,[2],"22.4 µM [rising, single point]"
Cc1cc(C)c(C#N)c(SCS(=O)Cc2ccccc2)n1 (stereo not drawn),AC50,[2],"5.62 µM [falling, single point]"
Cc1cccc2sc(N(CCN(C)C)C(=O)c3ccc4c(c3)OCCO4)nc12,AC50,[1],"0.282 µM [rising, full curve, poor fit]"
same,AC50,[2],"0.158 µM [rising, full curve, poor fit]"
COc1ccc(-n2ncc3c(=O)n(CC(=O)Nc4ccc(S(=O)(=O)N5CCOCC5)cc4)cnc32)cc1,AC50,[2],"35.5 µM [rising, single point]"
COc1ccc(CC(=O)NCc2n[nH]c(=S)n2-c2ccccc2OC)cc1,AC50,[1],"0.631 µM [rising, single point]"
same,AC50,[2],"0.501 µM [rising, single point]"
Cc1cc(OC(C)C(=O)Nc2cccc(-c3nc4ccccc4o3)c2)cc(C)c1Cl (stereo not drawn),AC50,[1],"5.01 µM [rising, partial curve, poor fit]"
same,AC50,[2],"14.1 µM [rising, partial curve]"
Cc1ccccc1OCc1nc2ccccc2c(=O)n1/N=C/c1cn[nH]c1-c1ccccc1,AC50,[1],"17.8 µM [rising, partial curve]"
same,AC50,[2],"17.8 µM [rising, partial curve]"
COc1ccc(N=C2SC(CC(=O)Nc3ccccc3)C(=O)N2Cc2ccccn2)cc1 (stereo not drawn),AC50,[1],"17.8 µM [falling, single point]"
CCN1CCCC1CNC(=O)c1cc2c(C)nc3ccccc3c2o1 (stereo not drawn),AC50,[2],"0.0224 µM [rising, full curve, poor fit]"
Cc1ccc2[nH]c(=O)c(CN(Cc3ccc4c(c3)OCO4)Cc3nnnn3C3CCCC3)cc2c1,AC50,[1],"17.8 µM [rising, single point]"
same,AC50,[2],"15.8 µM [rising, single point]"
Cc1cccc(-c2nc(C)c(CCNC(=O)C(=O)Nc3ccccc3C#N)s2)c1,AC50,[1],"12.6 µM [falling, partial curve]"
same,AC50,[2],"22.4 µM [falling, partial curve]"

# 3 neighbouring entries out of the list so far, for reference:
smiles,measurement,setting,value
CCN(c1ccccc1)S(=O)(=O)c1ccc(OC)c(NC(=O)CNC)c1,AC50,[1],"0.282 µM [falling, full curve]"
same,AC50,[2],"0.2 µM [falling, full curve, poor fit]"
Cc1ccc(OCCn2cnc(Cl)c2Cl)cc1,AC50,[1],"8.91 µM [rising, partial curve]"

# — PubChem BioAssay AID1487 (National Center for Advancing Translational Sciences (NCATS), 2009)
